Measured values published in article PMC10163288.
Some of the results follow.

B1: il2ra_site2_2erj_sap_27_mot_HHH_b2_01204_af2_000000056_0001_19_34_H_._HHH_b2_02801_0001_0000200018_0000001_0_0001 (protein)
chain: DSEEALRMAAEVSAKAAGVPDVEVEVENGTLEVEFTGTTHKLKLVLRLLEKFARWFGLDFETSSE
B2: il2ra_site2_3nfp_normal_mot_HHH_b1_00660_af2_000000090_0001_40_57_H_._HHH_b2_00689_0001_0000400034_0000001_0_af2pred_0001_af2pred (protein)
chain: SSSSSEEEERIRELIEQVEELLKKGDEEEARRLLREAAQLAWEAQDHELFARILELYELLESSSS
B3: il2ra_site2_2erj_normal_mot_a46e32ff5abe01017c5ab207d099328f_0001_1_af2_000000211_0001_36_50_H_._HHH_b1_06777_0001_0000600025_0000001_0_af2pred_0001_af2pred (protein)
chain: SSSSDEEEERVEELRLEISELLAEGDHERVEELLEELEELAEKLNDEEAKEFVEIVRILLSSSSS
B4: il2ra_site2_2erj_normal_mot_HHH_b1_07584_000000201_0001_42_55_H_._HHH_b1_03480_0001_0000400010_0000001_0_af2pred_0001_af2pred (protein)
chain: SSSSSEEEEKVRELSAEAAELKAEGDEEEARELLEEALEIAREINNEELRIFIEILLKRLNSSSS
B5: il2ra_site2_2erj_normal_mot_HHH_b1_02713_af2_000000038_0001_1_19_H_._HHH_b2_05421_0001_0000200007_0000001_0 (protein)
chain: SSSSSEEERLIREALLRAELLIEEGNEEEARQVLESALSYAKVLGDEEVLERIEKLLEELSSSSS
B6: il2ra_site1_1z92_sap_18_mot_HHH_b1_08075_000000018_0001_1_20_H_._HHH_b1_07355_0001_0000300021_0000001_0_0001 (protein)
chain: SSSSSSSSEEEVRELLERAKKVDTEEWRELLREALRIANEAGDEEARKLLREFVEEHSSSSSSSS
B7: il2ra_site1_1z92_sap_28_mot_HHH_b1_06519_000000232_0001_23_40_H_._HHH_b1_03304_0001_0000600030_0000001_0_0001_af2pred_0001_af2pred_swapped (protein)
chain: SSSSSRLERSLKLAARIAAKLAGLDEEEERELEEIAEELAERGVDFEEALRILDEVANELGSSSS
B8: il2ra_site2_3nfp_sap_30_mot_HHH_b2_03087_000000007_0001_42_55_H_._0f396a3c5b789435df01682a1ed80b82_0001_1_0001_0000100002_0000001_0_0001_1 (protein)
chain: SSSSDEEEVEELIREAKELLEKGNPEEAKKVLREAAHLAFRANDSELFFKLAELLARIAHSSSSS
B9: il2ra_site1_3nfp_sap_13_mot_HHH_b2_03135_af2_000000097_0001_42_55_H_._HHH_b1_04020_af2_0001_0000500010_0000001_1_0001 (protein)
chain: SEEEEEAEELLKERLPPRAVEMLKILARAVKEGNPNAERRLHYDLRVARQFGDEAVVRAIELLLK
B10: il2ra_site1_1z92_sap_15_mot_HHH_b1_03703_af2_000000171_0001_39_56_H_._ems_3hM_2546_af2_0001_0000600021_0000001_0_0001_af2pred_0001_af2pred_1 (protein)
chain: TARERLRELEEELGDPEQAVKWLFEKAHEQGLPPRNARIFVRKLIARLLNVPPEEAEELLERALK
B11: il2ra_site1_2b5i_normal_mot_HHH_b1_02271_000000068_0001_1_16_H_._d6030c5dbf6566d80ce0ad72a14fd8d0_0001_0001_0000200013_0000001_0_af2pred_dldesign_0_af2pred (protein)
chain: SRRRALLTVLDEIYKRRPEFEDAVDECAKLLSEKDPRLEEKAQELIDKLEKVDPEAAARLRAALE
B12: il2ra_site1_3nfp_sap_16_mot_HHH_b1_02229_000000038_0001_38_54_H_._5c6c2aab5a4e0b2af11bcfcc9ba4b787_0001_1_af2_0001_0000300017_0000001_0_0001_af2pred_0001_1_af2p … (protein)
chain: SSSSDEARKAFELVEEIQRLIKEGDHEEARELLEKLKEIAEELNSPAAKLLVRILERRLNSSSSS
B13: il2ra_site2_3nfp_normal_mot_HHH_b1_05547_af2_000000149_0001_21_38_H_._HHH_b1_01193_0001_0000600015_0000001_1 (protein)
chain: SSSSDKEKEELEEALEEALEAARALGDEEVVERIEELLEEFRREGDPKYTLEAYRLSREAYSSSS
B14: il2ra_site2_3nfp_normal_mot_HHH_b2_06150_000000217_0001_39_53_H_._HHH_b1_01649_0001_0000800011_0000001_0 (protein)
chain: SSSSDVEERVERLLEEAERRREEGDPEAVQELLAEASHIAYENRNSELFYLIAEVLFRLASSSSS
B15: il2ra_site2_3nfp_sap_19_mot_HHH_b1_07095_000000265_0001_1_20_H_._HHH_b2_05069_0001_0000400052_0000001_0_0001 (protein)
chain: NEELVEEAIELAEELGDPEVAEVLEKLLREARETNDPELREAVAALAAAVHLDPEYAKEMASLYK
B16: il2ra_site1_1z92_normal_mot_922575b2e9738a49cb663a995786872c_0001_af2_000000234_0001_18_32_H_._09c2afe89fb4cbada1505b3a46965288_0001_af2_0001_0000100006_0000001 … (protein)
chain: GPEQELEELEEELGDPREAIRLLLEELEEESGDPELARQFLKIEIKRLFNVPPEEAERLLREAEK
B17: il2ra_site2_3nfp_normal_mot_HHH_b2_04451_000000238_0001_21_37_H_._HHH_b1_05252_af2_0001_0000300015_0000001_0 (protein)
chain: SSSSEEEELERLLREIRELLEEGDLYEALELLARVTELAARLNDEEVAREVLEIFEELQRLASSS
B18: il2ra_site1_3nfp_sap_11_mot_HHH_b1_00630_af2_000000193_0001_42_55_H_._9d49f0d3562fbcf9434e2f7f4344708e_0001_0001_0000100002_0000001_0_0001_af2pred_0001_af2pred (protein)
chain: SSSSDVIRRANELVKEISRLLKEGDPEKARELLRELEEIAKERNSPVAELLVRRLEELIEKSSSS

Each binder was assayed against il2ra, P01589 (assay: yeast display titration).

Apparent Kd, inactive:
B1 no binding seen
B2 no binding seen
B3 no binding seen
B4 no binding seen
B5 no binding seen
B6 no binding seen
B7 no binding seen
B8 no binding seen
B9 no binding seen
B10 no binding seen
B11 no binding seen
B12 no binding seen
B13 no binding seen
B14 no binding seen
B15 no binding seen
B16 no binding seen
B17 no binding seen
B18 no binding seen

Random excerpt: 2 records from the list
Apparent Kd, inactive:
B4 no binding seen
B2 no binding seen
